Data: PubChem BioAssay AID504467 (National Center for Advancing Translational Sciences (NCATS), 2011)
Among all 330,000 compounds or so, about 7,700 (2.3%) were called active. The shares of active, inactive and inconclusive entries below differ from those in the screen. Calls follow the shape of the dose curve; as a rule, active = well fitted inhibition curve with a large enough effect; inconclusive = small, poorly fitted or top-dose-only effect, or effect the other way; inactive = flat fitted curve, though single readings scatter. Potencies beside an inconclusive call are fits to weak or partial responses and may not hold up.

Test: qHTS screen for small molecules that inhibit ELG1-dependent DNA repair in human embryonic kidney (HEK293T) cells expressing luciferase-tagged ELG1; also: nearly all actives have a fitted effect of over 55% in size
Conditions: HEK293T ELG1-luciferase reporter, luminescence, 16 h, DNA damage induced by 5-fluorouridine; activity change, negative = inhibition: at 46.1 µM (top of the series)
Outline: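 Reporter activity after DNA damage by 5-fluorouridine is monitored. Compound-treated cells incubate 16 hr at 37 °C, then ONE-Glo is added for 30 min before luminescence reading.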
% is scaled to controls: 0 for no effect and ±100 for the full control effect; potency is read from the fitted curve at half-maximal effect.

Row | SMILES | Potency | activity change, negative = inhibition
1 | Cc1ccccc1Cn1cc(NC(=O)c2nc3ncccn3n2)cn1 | inconclusive: 18.4 µM [activator, partial curve] | –
2 | COc1ccc(C(=O)NCCn2cc(SCC(=O)Nc3cc(C)on3)c3ccccc32)cc1OC | inconclusive: 14.6 µM [inhibitor, partial curve] | –
3 | Cc1cccc(-n2nnnc2SCC(=O)Nc2cccc(S(N)(=O)=O)c2)c1 | inconclusive: 20.6 µM [inhibitor, partial curve, poor fit] | –
4 | Cc1ccccc1C(=O)N(Cc1nc2ccccc2c(=O)[nH]1)C1CCCC1 | inconclusive: 32.6 µM [inhibitor, partial curve, poor fit] | –
5 | O=c1c2ccccc2c(-c2cccc(C(F)(F)F)c2)nn1-c1ccccc1 | inconclusive: 25.9 µM [inhibitor, partial curve, poor fit] | –
6 | COC(=O)c1ccc(COC(=O)CNC(=O)c2ccc(OC)cc2)cc1 | inconclusive: 20.6 µM [activator, partial curve] | –
7 | CC(C)(C)NC(=O)NC(=O)CN1CCN(S(=O)(=O)c2ccc3c(c2)OCCO3)CC1 | – | inactive: -0.562%
8 | Nc1cnn(Cc2ccccc2F)c1 | – | inactive: -9.72%
9 | Cc1cc(N2CCOCC2)nc(-c2ccccc2O)n1 | inconclusive: 23.1 µM [activator, partial curve, poor fit] | –
10 | COc1ccccc1N=CC=C1OC(C)(C)C(C)(C)O1 | inconclusive: 23.1 µM [inhibitor, single point] | –
11 | O=C(COc1ccccc1Br)NCc1ccco1 | inconclusive: 20.6 µM [activator, single point] | –
12 | O=C(O)c1ccc(NC(=S)NC(=O)c2cccc(COc3ccccc3)c2)cc1 | – | inactive: 22.8%
13 | Cc1ccc(CNC(=O)c2ccc(-n3cccc3)cc2)cc1 | – | inactive: -14%
14 | COc1ccc(CNc2ccc3cn[nH]c3c2)c(OC)c1OC | inconclusive: 18.4 µM [inhibitor, single point] | –
15 | CC(=O)c1c(C)[nH]c(C(=O)OCC(=O)C(C)(C)C)c1C | inconclusive: 25.9 µM [activator, single point] | –
16 | CC1CCc2sc3ncnc(N4CCOCC4)c3c2C1 (stereo not given) | inconclusive: 16.4 µM [inhibitor, partial curve, poor fit] | –
17 | CCOC(=O)c1c(C)nc2sc(C(=O)Nc3ccc(OC)cc3)c(N)c2c1-c1ccc(OC)cc1 | inconclusive: 7.31 µM [inhibitor, partial curve, poor fit] | –
18 | COc1ccc(CCN(Cc2ccccn2)C(=S)Nc2cccc(SC)c2)cc1OC | inconclusive: 18.3 µM [inhibitor, single point] | –

Arranged by number of heavy atoms (largest number first): 3 of the compounds above
Row | SMILES | Potency | activity change, negative = inhibition
4 | Cc1ccccc1C(=O)N(Cc1nc2ccccc2c(=O)[nH]1)C1CCCC1 | inconclusive: 32.6 µM [inhibitor, partial curve, poor fit] | –
1 | Cc1ccccc1Cn1cc(NC(=O)c2nc3ncccn3n2)cn1 | inconclusive: 18.4 µM [activator, partial curve] | –
10 | COc1ccccc1N=CC=C1OC(C)(C)C(C)(C)O1 | inconclusive: 23.1 µM [inhibitor, single point] | –

Following part

Row | SMILES | Potency | activity change, negative = inhibition
19 | CCOc1ccc(NC(=O)c2nccnc2CO)cc1 | inconclusive: 16.4 µM [activator, partial curve] | –
20 | Cc1ccc(-n2ncc3c2CCCC3NC(=O)c2cnccn2)cc1C (stereo not given) | inconclusive: 20.6 µM [inhibitor, partial curve] | –
21 | CCOC(=O)c1c(SCC(=O)Nc2nccs2)nc(C)c(C)c1C | inconclusive: 18.3 µM [activator, partial curve] | –
22 | COc1ccc(/C=N/NC(=O)CNC(=O)c2ccc3c(c2)OCCO3)cc1OC | – | inactive: 14.9%
23 | COc1ccc(Cl)cc1NC(=O)CN(C)CC(=O)Nc1ccccc1-c1ccccc1 | inconclusive: 18.3 µM [inhibitor, single point] | –
24 | CCOc1ccc(-c2nnc(SCc3nnc(-c4ccccc4)o3)n2-c2ccccc2F)cc1 | inconclusive: 29.1 µM [inhibitor, single point] | –
25 | Cc1ccc(-c2noc(CN(C(=O)C(c3ccccc3)c3ccccc3)C(C)C)n2)cc1 | inconclusive: 35.5 µM [inhibitor, single point] | –
26 | N=C(N)SCc1ccccc1Cl | inconclusive: 13 µM [inhibitor, partial curve] | –
27 | O=S(=O)(c1ccc2oc(=S)[nH]c2c1)N1CCCCC1 | – | inactive: -19.7%
28 | FC(F)(F)c1cccc(N2CCc3cn[nH]c32)c1 | inconclusive: 29.1 µM [activator, single point] | –
29 | Cc1cc(C)n2nc(C)c(-c3ccc(Cl)cc3)c2n1 | – | inactive: -2.97%
30 | CCCN(CCC)C(=O)CC(c1ccccc1)C1CCOC(C)(C)C1 (stereo not given) | – | inactive: -26.4%
31 | CC(C)(Oc1ccc(Cl)cc1)C(=O)N(Cc1ccccc1)c1ccccn1 | – | inactive: -12%
32 | CN1C(=O)c2cccc3c(S(=O)(=O)Nc4ccccn4)ccc1c23 | inconclusive: 8.2 µM [activator, partial curve] | –
33 | COCCNC(=O)CN(CCc1ccccc1)S(=O)(=O)c1ccc(OC)cc1 | – | inactive: 3.73%
34 | COC(=O)c1ccc(COc2ccccc2/C=N/NC(N)=O)o1 | inconclusive: 0.082 µM [activator, partial curve, poor fit] | –
35 | CCC(c1nnnn1C(C)(C)C)N1CCN(c2cc(Cl)ccc2C)CC1 (stereo not given) | inconclusive: 25.9 µM [inhibitor, single point] | –
